Some entries share one result that the patent states for a list of compounds.
Tested on: GABA-A receptors
Experiment: Displacement of [3H] muscimol from GABA-A receptors
Format: binding
Conditions: maximum inhibition seen over tested concentrations
Protocol: Muscimol is the principal psychoactive constituent of Amanita muscaria and related species of mushroom.
These tests were performed using the procedure described by Tomasz Plech et. al., Studies on anticonvulsant activity of 4-alkyl-1,2,4-triazole-3-thiones and their effect on GABAergic system; European J. of Medicinal Chem. 2014, 86, 690-699.

| SMILES | inhibition of [3H] muscimol binding (low inhibition, max.) [%] |
| --- | --- |
| CC(C)C[C@H](CN)CC(=O)O [Pregabalin, S-isobutylgaba, reference compound] | ≤ 15 |
| NCC1(CC(=O)O)CCCCC1 [gabapentin, cyclohexylgaba, reference compound] | ≤ 15 |

Reference: patent US9688613B2 (Jiva Pharma, Inc., priority 2015, dated 2017)
